Data set [1] addresses TFAP2A (AP-2alpha) in HeLa nuclear extract (UniProt P05549). Kind of data set: EMSA, supershift. Conditions: 20 µl reactions set up on ice, 15 min: 1 µl HeLa nuclear extract, 1 µl dI/dC (10 units/ml), 11.5 µl 2x buffer, protein in an extract, label: 32P end label.
For data set [2] the target is unchanged. Kind of data set: competition with a labelled probe. Conditions: 100-fold excess unlabeled, competes Bmp2 I, II and Bmp4 I, III probes; 20 µl reactions set up on ice, 15 min: 1 µl HeLa nuclear extract, 1 µl dI/dC (10 units/ml), 11.5 µl 2x buffer; protein in an extract.
Where [3] appears, read: competed by 100x cold TFAP2 oligo, supershifted by anti-TFAP2.

By UniProt entry, the sequences of proteins in these tests, tags left out. Where a name states a change or a piece, a line headed by the entry shows the natural chain unless it says otherwise.
UniProt P05549: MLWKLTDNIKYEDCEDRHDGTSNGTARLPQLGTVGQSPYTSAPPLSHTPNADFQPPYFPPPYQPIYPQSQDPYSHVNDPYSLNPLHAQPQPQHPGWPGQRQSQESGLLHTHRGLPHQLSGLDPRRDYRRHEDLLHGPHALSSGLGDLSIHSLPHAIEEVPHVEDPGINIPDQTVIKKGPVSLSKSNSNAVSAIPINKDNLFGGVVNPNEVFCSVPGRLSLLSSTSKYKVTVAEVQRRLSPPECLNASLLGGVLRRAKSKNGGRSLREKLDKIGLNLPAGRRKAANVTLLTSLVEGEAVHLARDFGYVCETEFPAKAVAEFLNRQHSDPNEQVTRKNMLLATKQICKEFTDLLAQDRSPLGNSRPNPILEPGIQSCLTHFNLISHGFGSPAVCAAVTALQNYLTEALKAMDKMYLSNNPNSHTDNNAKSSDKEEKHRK

Construct, isoform or probe ends are uncertain for at least one entry. At least one result comes from cells or an extract, where the contact may be indirect. For part of these data: Negatives hold for the conditions tested.

For the sequence “AAAAAGGGGCCAAAGGGCACTTTGT (double strand) [Bmp4 AP-2 I]”, in data set [1] (setting [3]), the binding result was “binds”.

Regarding “AGGGAGGGGCCGCTGGGGGGAAAGA (double strand) [Bmp4 AP-2 III]”, in data set [1] (setting [3]), the binding result is listed as “binds”.

Turning to “AGTAGAAGCTGGGCCCCAGGCGTGGCGCTT (double strand) [TFAP2 binding oligo (cold competitor)]”, the binding result in data set [2] is listed as “binds”.

Consider “GACACTTGGCCCGAGGGCTCGGAGC (double strand) [Bmp2 AP-2 II]”, for which the binding result in data set [1] (setting [3]) is listed as “binds”.

As to “GAGGCGAGGCCCCGTGGCTGGATGGG (double strand) [Bmp4 AP-2 II]”, the binding result in data set [1] (bound faster-moving unknown proteins, neither competed nor supershifted) is recorded as “no binding”.

“GAGTGAGCGCCCAAGGCGAGCGGGC (double strand) [Bmp2 AP-2 I]”: in data set [1] (setting [3]), the binding result is “binds”.
